Article PMC4536990 (Oncotarget, 2015)

Assay: peptide made by a vendor (Fmoc solid-phase peptide synthesis)
Conditions: whole synthesis

Sequence: FIHHIIGGLFSAGKAIHRLIRRRRR
- final HPLC purity: >95%

Where a sequence shows no end group, the ends are not given.
